This test addresses T1, HA-Pcgf6 (polycomb group ring finger 6) (UniProt Q99NA9).
T1 sequence: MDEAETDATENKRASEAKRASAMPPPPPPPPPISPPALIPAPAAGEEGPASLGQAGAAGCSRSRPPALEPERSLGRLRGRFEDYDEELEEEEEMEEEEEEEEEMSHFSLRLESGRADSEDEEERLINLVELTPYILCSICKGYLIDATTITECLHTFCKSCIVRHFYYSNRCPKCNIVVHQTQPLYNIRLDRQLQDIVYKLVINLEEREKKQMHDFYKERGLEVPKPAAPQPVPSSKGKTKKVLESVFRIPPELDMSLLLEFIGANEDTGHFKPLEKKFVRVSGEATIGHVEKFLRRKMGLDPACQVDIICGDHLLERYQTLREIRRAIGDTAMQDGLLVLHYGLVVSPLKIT
As to the kind of experiment: affinity purification with mass spectrometry; HA-Pcgf6 immunoprecipitated from ESCs; co-immunoprecipitated proteins detected by mass spectrometry.

By UniProt entry, the sequences of proteins in these tests, tags left out.
UniProt P55200: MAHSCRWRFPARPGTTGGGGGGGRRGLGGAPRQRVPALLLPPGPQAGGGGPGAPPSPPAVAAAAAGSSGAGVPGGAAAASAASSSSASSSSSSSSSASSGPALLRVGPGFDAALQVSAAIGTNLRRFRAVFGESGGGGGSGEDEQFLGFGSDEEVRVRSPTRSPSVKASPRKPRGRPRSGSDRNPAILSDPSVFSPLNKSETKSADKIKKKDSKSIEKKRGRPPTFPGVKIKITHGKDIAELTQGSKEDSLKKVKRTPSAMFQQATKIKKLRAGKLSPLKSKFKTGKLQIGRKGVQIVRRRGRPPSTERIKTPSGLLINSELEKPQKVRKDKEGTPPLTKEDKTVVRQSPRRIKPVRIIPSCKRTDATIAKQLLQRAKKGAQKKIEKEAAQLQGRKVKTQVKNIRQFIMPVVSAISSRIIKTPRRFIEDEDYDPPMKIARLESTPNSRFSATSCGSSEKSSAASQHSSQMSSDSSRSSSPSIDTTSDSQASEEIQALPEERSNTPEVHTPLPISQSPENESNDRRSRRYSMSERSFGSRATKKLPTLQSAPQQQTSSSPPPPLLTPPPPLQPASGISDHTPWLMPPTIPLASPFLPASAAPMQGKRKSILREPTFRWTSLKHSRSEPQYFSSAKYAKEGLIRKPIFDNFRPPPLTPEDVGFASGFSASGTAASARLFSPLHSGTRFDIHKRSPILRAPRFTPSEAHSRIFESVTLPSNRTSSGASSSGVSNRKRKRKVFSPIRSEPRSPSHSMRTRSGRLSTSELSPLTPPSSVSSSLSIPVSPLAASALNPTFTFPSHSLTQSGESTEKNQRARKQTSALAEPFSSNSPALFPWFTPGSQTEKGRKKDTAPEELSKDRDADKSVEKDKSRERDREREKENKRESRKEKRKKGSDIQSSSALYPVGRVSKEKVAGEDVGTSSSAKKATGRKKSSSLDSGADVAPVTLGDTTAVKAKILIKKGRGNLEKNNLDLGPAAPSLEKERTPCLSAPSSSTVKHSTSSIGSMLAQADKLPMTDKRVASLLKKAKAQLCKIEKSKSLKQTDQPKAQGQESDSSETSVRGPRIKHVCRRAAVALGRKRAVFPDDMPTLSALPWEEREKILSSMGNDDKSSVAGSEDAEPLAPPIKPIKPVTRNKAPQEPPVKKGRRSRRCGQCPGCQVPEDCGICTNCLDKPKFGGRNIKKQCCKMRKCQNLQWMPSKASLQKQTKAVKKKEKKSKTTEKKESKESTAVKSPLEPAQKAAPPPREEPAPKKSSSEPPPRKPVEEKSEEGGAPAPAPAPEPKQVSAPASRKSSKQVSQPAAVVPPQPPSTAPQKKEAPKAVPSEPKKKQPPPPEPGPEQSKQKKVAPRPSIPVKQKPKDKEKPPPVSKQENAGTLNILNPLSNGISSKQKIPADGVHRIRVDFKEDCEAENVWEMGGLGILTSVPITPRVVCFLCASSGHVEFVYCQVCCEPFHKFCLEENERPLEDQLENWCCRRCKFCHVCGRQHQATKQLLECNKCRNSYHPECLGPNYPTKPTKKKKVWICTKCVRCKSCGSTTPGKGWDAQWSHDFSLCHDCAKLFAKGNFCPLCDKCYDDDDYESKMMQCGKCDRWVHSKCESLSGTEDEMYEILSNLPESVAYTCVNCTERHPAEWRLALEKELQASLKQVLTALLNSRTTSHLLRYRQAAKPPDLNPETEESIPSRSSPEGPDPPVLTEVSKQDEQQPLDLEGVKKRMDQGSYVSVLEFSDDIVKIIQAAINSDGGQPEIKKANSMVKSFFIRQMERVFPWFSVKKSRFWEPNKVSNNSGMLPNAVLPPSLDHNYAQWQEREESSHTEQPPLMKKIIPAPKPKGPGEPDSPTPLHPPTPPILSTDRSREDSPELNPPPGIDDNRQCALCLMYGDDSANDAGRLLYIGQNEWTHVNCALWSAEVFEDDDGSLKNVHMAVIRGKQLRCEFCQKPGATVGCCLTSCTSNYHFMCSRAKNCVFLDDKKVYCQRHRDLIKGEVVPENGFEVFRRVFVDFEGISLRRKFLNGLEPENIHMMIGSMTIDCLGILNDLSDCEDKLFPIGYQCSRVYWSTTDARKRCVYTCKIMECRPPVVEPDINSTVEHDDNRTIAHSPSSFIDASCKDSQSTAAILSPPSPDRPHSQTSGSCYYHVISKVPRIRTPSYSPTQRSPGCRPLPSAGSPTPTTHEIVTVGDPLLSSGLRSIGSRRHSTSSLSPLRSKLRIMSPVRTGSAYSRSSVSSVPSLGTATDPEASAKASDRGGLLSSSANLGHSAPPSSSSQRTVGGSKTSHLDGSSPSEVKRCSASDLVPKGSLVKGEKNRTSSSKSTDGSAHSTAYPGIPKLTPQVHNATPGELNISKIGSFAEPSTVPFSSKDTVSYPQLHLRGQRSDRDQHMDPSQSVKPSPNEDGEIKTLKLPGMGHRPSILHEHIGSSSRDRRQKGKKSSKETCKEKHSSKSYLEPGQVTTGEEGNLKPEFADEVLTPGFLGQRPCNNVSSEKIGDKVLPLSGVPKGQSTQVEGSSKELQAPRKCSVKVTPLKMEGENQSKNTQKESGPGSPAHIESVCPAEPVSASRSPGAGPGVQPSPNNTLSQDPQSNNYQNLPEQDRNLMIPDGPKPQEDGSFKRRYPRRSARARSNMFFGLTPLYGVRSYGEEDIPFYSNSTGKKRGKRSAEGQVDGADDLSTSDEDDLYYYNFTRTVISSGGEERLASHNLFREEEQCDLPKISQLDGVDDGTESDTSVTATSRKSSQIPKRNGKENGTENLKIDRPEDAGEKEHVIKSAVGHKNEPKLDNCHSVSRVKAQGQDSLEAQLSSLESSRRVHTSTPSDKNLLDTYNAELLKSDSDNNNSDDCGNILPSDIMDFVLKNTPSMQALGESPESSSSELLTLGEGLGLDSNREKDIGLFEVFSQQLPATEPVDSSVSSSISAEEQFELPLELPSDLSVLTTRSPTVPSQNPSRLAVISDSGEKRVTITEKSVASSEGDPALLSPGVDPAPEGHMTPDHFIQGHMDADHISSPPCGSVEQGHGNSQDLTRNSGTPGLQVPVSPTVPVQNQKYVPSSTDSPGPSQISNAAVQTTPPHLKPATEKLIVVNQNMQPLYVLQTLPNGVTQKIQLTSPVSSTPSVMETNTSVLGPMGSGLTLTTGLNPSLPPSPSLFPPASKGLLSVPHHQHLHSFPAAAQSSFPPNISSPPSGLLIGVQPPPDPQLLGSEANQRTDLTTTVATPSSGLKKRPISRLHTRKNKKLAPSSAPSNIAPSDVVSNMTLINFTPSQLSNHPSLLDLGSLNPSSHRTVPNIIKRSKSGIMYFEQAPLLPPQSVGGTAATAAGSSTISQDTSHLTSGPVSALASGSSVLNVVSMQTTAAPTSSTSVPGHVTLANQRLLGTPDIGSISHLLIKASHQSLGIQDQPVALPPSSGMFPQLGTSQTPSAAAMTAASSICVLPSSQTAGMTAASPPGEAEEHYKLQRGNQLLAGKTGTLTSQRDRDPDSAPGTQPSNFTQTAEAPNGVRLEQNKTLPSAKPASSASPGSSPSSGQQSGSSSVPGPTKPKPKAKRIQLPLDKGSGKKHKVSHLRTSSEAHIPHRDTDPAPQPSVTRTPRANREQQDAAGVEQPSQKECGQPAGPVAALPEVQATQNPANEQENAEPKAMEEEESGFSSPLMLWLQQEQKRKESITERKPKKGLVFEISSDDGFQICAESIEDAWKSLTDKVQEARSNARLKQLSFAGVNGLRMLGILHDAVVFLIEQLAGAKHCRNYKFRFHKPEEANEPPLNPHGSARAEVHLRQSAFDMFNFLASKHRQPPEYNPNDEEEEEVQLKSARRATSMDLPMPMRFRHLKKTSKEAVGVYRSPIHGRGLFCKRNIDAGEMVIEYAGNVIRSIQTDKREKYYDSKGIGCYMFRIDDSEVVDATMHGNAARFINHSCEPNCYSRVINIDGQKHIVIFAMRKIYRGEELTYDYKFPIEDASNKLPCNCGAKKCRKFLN
UniProt Q8BX09: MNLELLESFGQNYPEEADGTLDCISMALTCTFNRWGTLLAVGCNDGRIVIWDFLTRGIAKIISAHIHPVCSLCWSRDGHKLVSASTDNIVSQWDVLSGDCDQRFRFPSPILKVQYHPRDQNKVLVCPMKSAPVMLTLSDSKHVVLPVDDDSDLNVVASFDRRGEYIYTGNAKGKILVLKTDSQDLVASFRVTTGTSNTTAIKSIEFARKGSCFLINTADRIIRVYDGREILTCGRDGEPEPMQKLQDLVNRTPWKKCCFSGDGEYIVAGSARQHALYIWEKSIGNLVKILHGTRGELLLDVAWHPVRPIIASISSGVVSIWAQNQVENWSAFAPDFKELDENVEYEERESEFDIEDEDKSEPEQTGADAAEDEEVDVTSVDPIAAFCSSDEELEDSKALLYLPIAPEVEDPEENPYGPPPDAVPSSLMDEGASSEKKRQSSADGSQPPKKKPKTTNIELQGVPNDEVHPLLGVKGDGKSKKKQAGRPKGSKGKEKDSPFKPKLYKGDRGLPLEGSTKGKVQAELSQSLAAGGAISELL

No constants are given. Whether binding was seen depends on the method and setting. Binding seen in cells or lysates may run through a third protein. These calls come from enrichment with a bait or labelling near it, and not all partners need be listed. Where a sequence is shown, tags or fusion partners need not be part of it.

For Mll1 (from UniProt P55200 1-3966), the binding entry is given as “binds”.
The same measure for Rbbp5 (from UniProt Q8BX09 1-538): “binds”.

B1: Zfp219 (protein, UniProt Q6IQX8 1-726)
chain: MEGSRPRILVGHLEPSPPAFDGELDLQRYSNGPGVSGTPGPGSPGMGAVGWSETRAGERRFPCPVCGKRFRFNSILALHLRAHPGAQAFQCPHCGHRAAQRALLRSHLRTHQPERPRSPAARLLLELEERALLREARLGRARSSGGMQSSPAAEGLARPQVPSSSAFRCPFCKGKFRTSAERERHLHILHRPWKCSLCSFGSSQEEELLHHSLTAHGASERPLAATSTPEPPPPPQQEPRSALEPEPEPEPRPEPDREANPAPTPAPPEEPPAPPEFRCQVCGQSFTQSWFLKGHMRKHKASFDHACPVCGRCFKEPWFLKNHMKVHTSKLGPLRAPGPGSAPARAPQPPDLSLLAYEPLGPALLLAPAPAPAERREPPSLLGYLSVRAGEVRPNGEGADPGGGRSYGGFRPLPSALPNRARRHRTEEPEEEEEVVEAEEESWARGRSLGSLTSLHPNPGEGSGQPAPAAGTQARSTATQEENGLLVGGTRSEAGRGATGKDCPFCGKSFRSAHHLKVHLRVHTGERPYKCPHCDYAGTQSGSLKYHLQRHHREQRSSAGPGPPPEPPPPSQRGSLQPQSGAKPTQASATWVEGTASTRPPSSSTGPGSRRKPASPGRTLRNGRGGEAEPLDLSLRAGPGGEAGAGGALHRCLFCPFATGAPELMALHLQVHHSRRARGRRQPRADTSPTYVRAPSGETPPSPPLEEEGSPGLSRSGEAGLGGQER
Take B1: the binding entry is recorded as “binds”.

(Values after paper PMC4888081.)
